Measurements as given in the supplement of paper PMC12819154, “High-throughput peptide-centric local stability assay extends protein–ligand identification to membrane proteins, tissues and bacteria” (Nature Structural & Molecular Biology, 2025).
The list shows a part of the results. Small differences around the control level are noise.

Amino acid sequences for entries named in this document (tags omitted). A change or cut given only in a name is not applied to a line headed by its entry.
UniProt Q9UDT6: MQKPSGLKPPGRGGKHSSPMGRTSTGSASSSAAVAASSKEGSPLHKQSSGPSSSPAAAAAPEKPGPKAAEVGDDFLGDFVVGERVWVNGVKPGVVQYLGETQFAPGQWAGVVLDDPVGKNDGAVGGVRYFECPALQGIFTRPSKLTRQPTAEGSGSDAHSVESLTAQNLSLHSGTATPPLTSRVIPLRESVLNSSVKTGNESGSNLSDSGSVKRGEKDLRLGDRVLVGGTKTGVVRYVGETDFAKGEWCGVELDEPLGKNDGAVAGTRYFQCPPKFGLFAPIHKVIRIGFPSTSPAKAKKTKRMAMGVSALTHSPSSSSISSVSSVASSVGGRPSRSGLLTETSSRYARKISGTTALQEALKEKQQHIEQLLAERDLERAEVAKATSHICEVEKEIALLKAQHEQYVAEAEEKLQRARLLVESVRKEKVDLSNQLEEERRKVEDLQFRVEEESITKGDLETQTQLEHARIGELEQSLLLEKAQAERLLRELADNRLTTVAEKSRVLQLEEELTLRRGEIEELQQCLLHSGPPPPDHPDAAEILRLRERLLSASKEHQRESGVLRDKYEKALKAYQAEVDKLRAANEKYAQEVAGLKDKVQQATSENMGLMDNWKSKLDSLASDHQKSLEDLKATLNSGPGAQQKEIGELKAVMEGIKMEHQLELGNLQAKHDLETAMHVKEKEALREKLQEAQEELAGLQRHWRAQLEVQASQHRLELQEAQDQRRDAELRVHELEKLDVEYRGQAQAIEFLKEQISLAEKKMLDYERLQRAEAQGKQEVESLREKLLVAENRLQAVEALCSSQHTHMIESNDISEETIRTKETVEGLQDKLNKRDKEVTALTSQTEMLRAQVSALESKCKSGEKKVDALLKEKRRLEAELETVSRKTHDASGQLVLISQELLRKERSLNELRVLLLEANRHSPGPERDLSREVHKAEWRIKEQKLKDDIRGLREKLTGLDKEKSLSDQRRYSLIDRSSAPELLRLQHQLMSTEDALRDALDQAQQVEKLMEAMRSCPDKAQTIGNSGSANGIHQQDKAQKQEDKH
UniProt Q9UJL9: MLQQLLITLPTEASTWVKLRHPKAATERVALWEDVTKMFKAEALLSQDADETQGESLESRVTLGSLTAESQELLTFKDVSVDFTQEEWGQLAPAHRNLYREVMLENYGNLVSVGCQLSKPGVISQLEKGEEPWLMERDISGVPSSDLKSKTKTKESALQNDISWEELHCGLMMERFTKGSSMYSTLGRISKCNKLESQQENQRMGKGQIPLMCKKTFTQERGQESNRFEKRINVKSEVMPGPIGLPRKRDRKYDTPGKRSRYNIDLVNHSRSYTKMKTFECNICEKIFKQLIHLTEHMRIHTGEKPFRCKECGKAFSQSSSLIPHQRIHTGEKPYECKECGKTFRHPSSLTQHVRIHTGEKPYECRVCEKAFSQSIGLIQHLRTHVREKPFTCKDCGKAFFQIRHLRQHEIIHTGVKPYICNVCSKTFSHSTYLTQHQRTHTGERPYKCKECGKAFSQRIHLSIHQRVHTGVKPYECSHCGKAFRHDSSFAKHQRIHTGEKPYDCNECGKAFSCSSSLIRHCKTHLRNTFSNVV
UniProt Q9UIY3: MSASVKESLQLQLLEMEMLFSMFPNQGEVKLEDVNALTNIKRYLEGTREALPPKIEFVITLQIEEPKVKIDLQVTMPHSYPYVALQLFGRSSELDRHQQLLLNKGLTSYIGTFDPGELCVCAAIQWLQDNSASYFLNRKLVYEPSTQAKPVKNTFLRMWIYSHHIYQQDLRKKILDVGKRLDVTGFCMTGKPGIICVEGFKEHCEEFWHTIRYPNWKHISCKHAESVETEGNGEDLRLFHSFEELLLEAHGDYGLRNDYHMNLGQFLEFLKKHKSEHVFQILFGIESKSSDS
UniProt Q9P2T1: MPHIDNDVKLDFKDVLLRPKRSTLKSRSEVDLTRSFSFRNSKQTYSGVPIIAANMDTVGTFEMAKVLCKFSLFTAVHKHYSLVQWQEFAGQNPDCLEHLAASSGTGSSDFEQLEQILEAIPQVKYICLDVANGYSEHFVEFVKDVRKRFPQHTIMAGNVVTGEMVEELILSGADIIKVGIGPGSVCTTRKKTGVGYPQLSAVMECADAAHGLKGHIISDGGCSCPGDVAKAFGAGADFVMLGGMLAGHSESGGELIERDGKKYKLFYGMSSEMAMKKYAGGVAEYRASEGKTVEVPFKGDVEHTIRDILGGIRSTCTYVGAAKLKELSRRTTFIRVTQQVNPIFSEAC
UniProt Q9UK39: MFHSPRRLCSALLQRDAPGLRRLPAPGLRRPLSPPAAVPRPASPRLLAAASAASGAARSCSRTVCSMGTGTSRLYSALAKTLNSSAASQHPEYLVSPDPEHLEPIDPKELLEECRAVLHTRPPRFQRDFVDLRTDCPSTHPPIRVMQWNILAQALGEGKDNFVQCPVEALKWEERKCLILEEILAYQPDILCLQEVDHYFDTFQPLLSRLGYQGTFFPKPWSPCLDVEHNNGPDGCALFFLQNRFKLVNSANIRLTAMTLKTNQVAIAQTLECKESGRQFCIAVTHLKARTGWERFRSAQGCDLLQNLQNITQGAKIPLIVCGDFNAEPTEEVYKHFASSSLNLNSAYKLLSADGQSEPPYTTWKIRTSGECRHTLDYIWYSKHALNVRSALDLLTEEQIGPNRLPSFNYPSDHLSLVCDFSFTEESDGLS
UniProt Q9UBL3, whole entry: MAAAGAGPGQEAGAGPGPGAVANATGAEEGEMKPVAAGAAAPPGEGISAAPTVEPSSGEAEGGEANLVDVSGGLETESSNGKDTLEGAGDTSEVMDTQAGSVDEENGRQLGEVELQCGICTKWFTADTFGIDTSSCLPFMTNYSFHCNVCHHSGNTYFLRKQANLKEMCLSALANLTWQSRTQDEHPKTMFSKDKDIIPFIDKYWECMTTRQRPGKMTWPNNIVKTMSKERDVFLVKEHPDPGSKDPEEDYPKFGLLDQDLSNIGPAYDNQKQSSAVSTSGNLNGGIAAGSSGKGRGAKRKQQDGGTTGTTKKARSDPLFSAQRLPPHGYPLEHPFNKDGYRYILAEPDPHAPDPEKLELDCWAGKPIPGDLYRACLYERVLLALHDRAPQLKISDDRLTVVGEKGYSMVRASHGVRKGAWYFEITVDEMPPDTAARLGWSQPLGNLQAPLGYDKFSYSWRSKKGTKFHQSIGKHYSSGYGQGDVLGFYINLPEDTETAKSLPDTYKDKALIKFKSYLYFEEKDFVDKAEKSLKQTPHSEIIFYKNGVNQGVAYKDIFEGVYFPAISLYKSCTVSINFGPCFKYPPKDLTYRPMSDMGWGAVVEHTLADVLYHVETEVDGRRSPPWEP
UniProt Q9UIS9: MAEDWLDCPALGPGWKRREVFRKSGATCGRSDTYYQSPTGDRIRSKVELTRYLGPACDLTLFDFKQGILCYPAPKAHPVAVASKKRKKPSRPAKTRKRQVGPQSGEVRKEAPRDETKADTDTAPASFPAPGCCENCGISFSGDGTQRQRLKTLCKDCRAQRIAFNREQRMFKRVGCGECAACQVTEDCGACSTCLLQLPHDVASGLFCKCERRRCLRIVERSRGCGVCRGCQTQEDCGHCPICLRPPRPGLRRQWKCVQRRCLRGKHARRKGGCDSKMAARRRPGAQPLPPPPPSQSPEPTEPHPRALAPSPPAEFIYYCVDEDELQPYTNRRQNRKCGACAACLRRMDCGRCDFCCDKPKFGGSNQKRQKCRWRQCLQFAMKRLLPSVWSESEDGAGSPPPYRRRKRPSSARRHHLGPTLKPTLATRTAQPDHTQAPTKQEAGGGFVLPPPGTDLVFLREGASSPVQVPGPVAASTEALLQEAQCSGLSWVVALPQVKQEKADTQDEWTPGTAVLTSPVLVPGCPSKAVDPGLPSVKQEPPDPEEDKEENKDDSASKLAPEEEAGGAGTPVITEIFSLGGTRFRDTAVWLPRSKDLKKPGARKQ
UniProt Q9P000, whole entry: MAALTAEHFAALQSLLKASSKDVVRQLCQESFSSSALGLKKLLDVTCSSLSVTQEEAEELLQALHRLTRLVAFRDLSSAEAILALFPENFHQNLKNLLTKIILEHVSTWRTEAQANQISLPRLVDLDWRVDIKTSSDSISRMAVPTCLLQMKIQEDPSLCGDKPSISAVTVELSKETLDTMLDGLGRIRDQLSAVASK
UniProt Q9NZZ3: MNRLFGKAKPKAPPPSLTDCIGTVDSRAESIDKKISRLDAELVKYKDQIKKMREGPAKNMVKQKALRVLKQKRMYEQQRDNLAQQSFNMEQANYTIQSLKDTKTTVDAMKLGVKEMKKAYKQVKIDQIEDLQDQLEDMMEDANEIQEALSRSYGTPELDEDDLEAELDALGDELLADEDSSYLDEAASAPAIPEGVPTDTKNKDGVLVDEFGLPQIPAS
UniProt Q9UHV7: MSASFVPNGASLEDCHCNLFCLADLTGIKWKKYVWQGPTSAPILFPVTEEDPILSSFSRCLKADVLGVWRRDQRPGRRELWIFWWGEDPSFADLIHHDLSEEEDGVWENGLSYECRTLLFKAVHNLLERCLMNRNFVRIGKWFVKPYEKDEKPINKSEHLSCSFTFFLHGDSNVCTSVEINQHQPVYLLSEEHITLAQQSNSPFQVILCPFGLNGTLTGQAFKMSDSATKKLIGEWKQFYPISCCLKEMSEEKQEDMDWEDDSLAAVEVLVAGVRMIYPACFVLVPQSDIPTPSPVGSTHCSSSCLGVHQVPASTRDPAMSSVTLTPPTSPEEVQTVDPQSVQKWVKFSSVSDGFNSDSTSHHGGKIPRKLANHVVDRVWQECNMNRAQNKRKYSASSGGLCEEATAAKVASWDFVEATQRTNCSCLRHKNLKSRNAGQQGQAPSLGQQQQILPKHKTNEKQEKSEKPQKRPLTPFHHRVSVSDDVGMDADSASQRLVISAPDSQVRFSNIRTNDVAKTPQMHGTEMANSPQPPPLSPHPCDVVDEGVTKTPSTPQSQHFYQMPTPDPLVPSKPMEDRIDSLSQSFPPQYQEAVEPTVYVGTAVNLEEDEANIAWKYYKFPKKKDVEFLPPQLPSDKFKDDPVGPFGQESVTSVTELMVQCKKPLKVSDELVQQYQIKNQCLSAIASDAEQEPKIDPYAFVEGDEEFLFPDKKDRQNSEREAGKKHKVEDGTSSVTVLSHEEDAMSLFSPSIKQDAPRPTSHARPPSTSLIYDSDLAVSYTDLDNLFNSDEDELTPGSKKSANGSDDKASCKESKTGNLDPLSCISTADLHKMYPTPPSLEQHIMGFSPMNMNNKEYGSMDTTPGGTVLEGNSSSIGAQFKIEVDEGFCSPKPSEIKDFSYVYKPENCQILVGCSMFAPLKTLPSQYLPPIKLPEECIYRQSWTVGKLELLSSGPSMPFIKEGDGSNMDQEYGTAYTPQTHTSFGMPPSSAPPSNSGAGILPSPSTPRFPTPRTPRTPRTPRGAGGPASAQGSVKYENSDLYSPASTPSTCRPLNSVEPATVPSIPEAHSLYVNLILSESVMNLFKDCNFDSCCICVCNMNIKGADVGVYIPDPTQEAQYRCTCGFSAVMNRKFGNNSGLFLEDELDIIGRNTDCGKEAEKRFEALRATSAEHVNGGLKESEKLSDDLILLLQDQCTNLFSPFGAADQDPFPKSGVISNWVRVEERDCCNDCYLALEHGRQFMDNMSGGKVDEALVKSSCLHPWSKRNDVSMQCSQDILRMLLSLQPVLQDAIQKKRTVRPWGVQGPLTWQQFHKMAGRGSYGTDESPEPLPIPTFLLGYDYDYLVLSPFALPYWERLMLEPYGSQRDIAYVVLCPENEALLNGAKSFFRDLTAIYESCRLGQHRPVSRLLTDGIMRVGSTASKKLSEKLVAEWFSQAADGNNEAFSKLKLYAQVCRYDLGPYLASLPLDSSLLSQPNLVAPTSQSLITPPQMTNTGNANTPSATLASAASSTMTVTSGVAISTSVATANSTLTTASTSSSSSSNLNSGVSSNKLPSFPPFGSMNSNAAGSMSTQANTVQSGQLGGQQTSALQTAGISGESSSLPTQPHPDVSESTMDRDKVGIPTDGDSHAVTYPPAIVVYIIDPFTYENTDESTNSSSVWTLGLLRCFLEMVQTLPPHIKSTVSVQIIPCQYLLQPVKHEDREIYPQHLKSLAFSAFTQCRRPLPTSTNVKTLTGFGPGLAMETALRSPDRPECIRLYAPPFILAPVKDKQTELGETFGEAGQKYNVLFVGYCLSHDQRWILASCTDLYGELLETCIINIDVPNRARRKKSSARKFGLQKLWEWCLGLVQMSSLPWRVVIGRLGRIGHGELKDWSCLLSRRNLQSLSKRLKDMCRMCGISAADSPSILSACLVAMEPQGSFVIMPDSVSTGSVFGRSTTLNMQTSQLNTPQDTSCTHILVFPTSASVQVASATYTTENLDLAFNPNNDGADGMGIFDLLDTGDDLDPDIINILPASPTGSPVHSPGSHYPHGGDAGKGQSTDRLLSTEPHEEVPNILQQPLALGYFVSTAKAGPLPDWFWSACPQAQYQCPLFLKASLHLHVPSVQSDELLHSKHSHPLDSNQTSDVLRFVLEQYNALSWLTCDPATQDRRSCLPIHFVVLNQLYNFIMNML
UniProt Q9UII2: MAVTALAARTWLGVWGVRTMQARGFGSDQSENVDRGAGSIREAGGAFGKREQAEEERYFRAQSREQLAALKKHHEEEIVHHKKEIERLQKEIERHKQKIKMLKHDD

The targets below were run with CN[C@@H]1C[C@H]2O[C@@](C)([C@@H]1OC)n1c3ccccc3c3c4c(c5c6ccccc6n2c5c31)C(=O)NC4 [staurosporine] (assay: log2 fold change of tryptic peptide abundance, ligand vs vehicle (limited proteolysis) (log2 ratio); higher = more trypsin-susceptible (destabilized)). Conditions: ligand concentration: 20 uM; sample: K562 cleared lysate; digestion: 4 min, 22 C (HT-PELSA RT4min, Orbitrap Astral).
“CLIP2 (peptide sequence: QSSGPSSSPAAAAAPEKPGPK, peptide start residue: 47) (UniProt Q9UDT6)” gave a log2 fold change of -0.482.
Target “UniProt Q9UK96 (peptide sequence: GITVAQSSQPTR, peptide start residue: 759)” has a log2 fold change of 0.642.
For “DTL (peptide sequence: GSVSSVSPKPPSSFK, peptide start residue: 484) (UniProt Q9NZJ0)”, the log2 fold change was 0.285.
Work on “UniProt Q9UJL9 (peptide sequence: VALWEDVTK, peptide start residue: 29)” yielded a log2 fold change of -0.199.
“RWDD2A (peptide sequence: HKSEHVFQILFGIESK, peptide start residue: 273) (UniProt Q9UIY3)” showed a log2 fold change of -0.403.
Work on “GMPR2 (peptide sequence: YAGGVAEYR, peptide start residue: 278) (UniProt Q9P2T1)” yielded a log2 fold change of -0.147.
In the case of “UniProt Q9UK39 (peptide sequence: TNQVAIAQTLECKESGR, peptide start residue: 262)”, the log2 fold change is reported as -0.292.
“ASH2L (peptide sequence: EHPDPGSKDPEEDYPK, peptide start residue: 238) (UniProt Q9UBL3)” showed a log2 fold change of 0.326.
With “UBQLN2 (peptide sequence: NPEISHLLNNPDIMR, peptide start residue: 218) (UniProt Q9UHD9)” the log2 fold change was 0.0245.
“MBD1 (peptide sequence: DTAVWLPR, peptide start residue: 586) (UniProt Q9UIS9)” gave a log2 fold change of -0.355.
“SIX4 (peptide sequence: TIWDGEETVYCFKEK, peptide start residue: 219) (UniProt Q9UIU6)” showed a log2 fold change of 0.456.
“COMMD9 (peptide sequence: ETLDTMLDGLGR, peptide start residue: 176) (UniProt Q9P000)” showed a log2 fold change of 0.77.
Target “CHMP5 (peptide sequence: NKDGVLVDEFGLPQIPAS, peptide start residue: 202) (UniProt Q9NZZ3)” has a log2 fold change of -0.117.
Target “UniProt Q9NZI5 (peptide sequence: EVSSSEGIHHPISK, peptide start residue: 286)” has a log2 fold change of 0.224.
Target “UniProt Q9UHC1 (peptide sequence: SDLVLPFLPR, peptide start residue: 1104)” has a log2 fold change of 0.176.
In the case of “MED13 (peptide sequence: VWQECNMNR, peptide start residue: 379) (UniProt Q9UHV7)”, the log2 fold change is reported as 0.233.
“IBTK (peptide sequence: VNFHEDDNQK, peptide start residue: 671) (UniProt Q9P2D0)” gave a log2 fold change of 0.473.
“UniProt Q9UII2 (peptide sequence: EQAEEER, peptide start residue: 51)” was tested, and the log2 fold change was -0.151.
“TCF20 (peptide sequence: LQESCWDLSR, peptide start residue: 1184) (UniProt Q9UGU0)” was tested, and the log2 fold change was 0.504.
Work on “VPS29 (peptide sequence: LVLVLGDLHIPHR, peptide start residue: 2) (UniProt Q9UBQ0)” yielded a log2 fold change of -0.489.
“IFT172 (peptide sequence: HVAYLWAK, peptide start residue: 1089) (UniProt Q9UG01)” gave a log2 fold change of 0.537.
“UniProt Q9UDV7 (peptide sequence: SKPYSCPECGK, peptide start residue: 515)” was tested, and the log2 fold change was 0.686.
“PARP2 (peptide sequence: VNNGNTAPEDSSPAKK, peptide start residue: 23) (UniProt Q9UGN5)” showed a log2 fold change of 0.548.
In the case of “ADD3 (peptide sequence: EQNRYDLK, peptide start residue: 510) (UniProt Q9UEY8)”, the log2 fold change is reported as 0.229.
In the case of “UniProt Q9P0J1 (peptide sequence: MLSLPEELAR, peptide start residue: 503)”, the log2 fold change is reported as 0.518.
“EIF3K (peptide sequence: AMFEQMR, peptide start residue: 2) (UniProt Q9UBQ5)” showed a log2 fold change of 0.065.
“UniProt Q9UIF7 (peptide sequence: SQVSSPCSR, peptide start residue: 508)” gave a log2 fold change of -0.0165.
In the case of “CEP72 (peptide sequence: HLLSPQLVQYQCGDSGK, peptide start residue: 234) (UniProt Q9P209)”, the log2 fold change is reported as -0.584.
Work on “UniProt Q9UHJ3 (peptide sequence: EVLTLLINAAYKPSR, peptide start residue: 540)” yielded a log2 fold change of 0.231.
“UniProt Q9UII5 (peptide sequence: AFNLSSNLTTHK, peptide start residue: 756)” gave a log2 fold change of -0.719.
For “TBC1D14 (peptide sequence: LLSAPEYGPK, peptide start residue: 40) (UniProt Q9P2M4)”, the log2 fold change was 0.177.
In the case of “UniProt Q9P202 (peptide sequence: RPLDAHLALVNQHPIGPFPR, peptide start residue: 663)”, the log2 fold change is reported as 0.183.
With “UniProt Q9UIF8 (peptide sequence: LIVPSPDVLK, peptide start residue: 401)” the log2 fold change was 0.311.
With “HECA (peptide sequence: NAHFDYSPAGLAVHR, peptide start residue: 319) (UniProt Q9UBI9)” the log2 fold change was -0.0971.
“MAT2B (peptide sequence: ESLWPFLIDKR, peptide start residue: 317) (UniProt Q9NZL9)” showed a log2 fold change of -0.63.
In the case of “TRMT6 (peptide sequence: NYQVLPDR, peptide start residue: 432) (UniProt Q9UJA5)”, the log2 fold change is reported as -0.3.
